Taken from: PubChem BioAssay AID602196 (INSERM, 2012)
Screen: 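Genes whose knock-down alters cisplatin killing of lung cancer cells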. Cell system: human A549 lung cancer cells. Knock-down reagent: siRNA pair against human genes. Timing: 48 h transfection before cisplatin; time from cisplatin to read-out not stated. Treatment: cisplatin at a dose killing half of control-siRNA cells; exact dose and duration not given. Measurement: 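Shift in cisplatin death relative to control siRNA, from -50 (all cells die) to +50 (no cells die); siRNAs harmful on their own scored 0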. Scale: two-siRNA summed score (-2 to +2): higher = both siRNAs protect from cisplatin killing; -2 means both sensitise; mean protection from cisplatin (shift in death): higher = protection from cisplatin killing. Active means: 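siRNAs harmful alone (LDH or WST-1) get 0; others get +1 for less and -1 for more cisplatin killing; genes are active when the two siRNAs give the same sign, summing to ±2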. Meaning of the calls: active = both siRNAs shift cisplatin killing the same way; inactive = no consistent shift, or siRNA harmful alone.
This is a random part of about 23,000 deposited reagents. 455 of them (2%) count as active. 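Active includes both protection and sensitisation; some change values fall well beyond the stated -50 to +50 range.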 Not all columns of the deposit are shown. Not given: the amount of reagent.

gene,two-siRNA summed score (-2 to +2),mean protection from cisplatin (shift in death) (%),Call
TIMM13 (translocase of inner mitochondrial membrane 13),0,2.3,inactive
LOC441338,-1,-2,inactive
LOC391462,1,10.4,inactive
CSNK1G2 (casein kinase 1 gamma 2),-1,-4.4,inactive
PRDM8 (PR/SET domain 8),0,-10.5,inactive
VAT1L (vesicle amine transport 1 like),0,-2.9,inactive
POMK (protein O-mannose kinase),0,4.2,inactive
IL10RB (interleukin 10 receptor subunit beta),0,-1.3,inactive
KIF17 (kinesin family member 17),0,2.5,inactive
KCTD10 (potassium channel tetramerization domain containing 10),0,7.6,inactive
CRYBG3 (crystallin beta-gamma domain containing 3),0,5.8,inactive
ARHGEF16 (Rho guanine nucleotide exchange factor 16),1,14.1,inactive
KIF27 (kinesin family member 27),-1,-21.8,inactive
PACC1 (proton activated chloride channel 1),1,12.1,inactive
PKIA (cAMP-dependent protein kinase inhibitor alpha),0,10.6,inactive
DEFB127 (defensin beta 127),1,9.5,inactive
CDS2 (CDP-diacylglycerol synthase 2),0,-0.9,inactive
EHF (ETS homologous factor),-1,-6.6,inactive
VPS4B (vacuolar protein sorting 4 homolog B),0,7.2,inactive
UTS2B (urotensin 2B),0,0.8,inactive
CCNH (cyclin H),0,3.9,inactive
LOC441647,1,11,inactive
LOC285444,0,-4.1,inactive
HNRNPK (heterogeneous nuclear ribonucleoprotein K),0,5.4,inactive
"MUC13 (mucin 13, cell surface associated)",-1,-5.2,inactive
CEACAM20 (CEA cell adhesion molecule 20),1,5.5,inactive
APAF1 (apoptotic peptidase activating factor 1),2,17.4,active
EHD4 (EH domain containing 4),0,1,inactive
SPANXN2 (SPANX family member N2),0,3.8,inactive
YPEL1 (yippee like 1),0,-4.7,inactive
LINC03103 (long independently transcribed non-coding RNA 3103),0,-1.6,inactive
LOC441482,-1,1.4,inactive
SPC24 (SPC24 component of NDC80 kinetochore complex),0,6.4,inactive
LOC388080,1,6.3,inactive
IMPACT (impact RWD domain protein),-1,-10.9,inactive

A stretch of the results above:
gene,two-siRNA summed score (-2 to +2),mean protection from cisplatin (shift in death) (%),Call
PACC1 (proton activated chloride channel 1),1,12.1,inactive
PKIA (cAMP-dependent protein kinase inhibitor alpha),0,10.6,inactive
DEFB127 (defensin beta 127),1,9.5,inactive
CDS2 (CDP-diacylglycerol synthase 2),0,-0.9,inactive
EHF (ETS homologous factor),-1,-6.6,inactive
VPS4B (vacuolar protein sorting 4 homolog B),0,7.2,inactive
UTS2B (urotensin 2B),0,0.8,inactive
CCNH (cyclin H),0,3.9,inactive
LOC441647,1,11,inactive

The listing continues:
gene,two-siRNA summed score (-2 to +2),mean protection from cisplatin (shift in death) (%),Call
RSBN1 (round spermatid basic protein 1),0,0.2,inactive
IL17A (interleukin 17A),-1,-16.6,inactive
WHRN (whirlin),0,11.2,inactive
EDNRB (endothelin receptor type B),0,4.5,inactive
DUOXA2 (dual oxidase maturation factor 2),0,14,inactive
OR4D5 (olfactory receptor family 4 subfamily D member 5),0,10.5,inactive
LAGE3 (L antigen family member 3),0,2.5,inactive
"MUC3A (mucin 3A, cell surface associated)",0,11.5,inactive
C6orf89 (chromosome 6 open reading frame 89),0,9.6,inactive
LCE1C (late cornified envelope 1C),2,20.5,active
VEGFA (vascular endothelial growth factor A),1,5.3,inactive
"ABHD12 (abhydrolase domain containing 12, lysophospholipase)",0,-1,inactive
PLN (phospholamban),0,-3.3,inactive
GIPR (gastric inhibitory polypeptide receptor),-1,-8.9,inactive
KIAA0527,1,11.2,inactive
MOGS (mannosyl-oligosaccharide glucosidase),-1,-10.2,inactive
PER1 (period circadian regulator 1),-1,-13.6,inactive
LRRC37A2 (leucine rich repeat containing 37 member A2),1,27.3,inactive
LOC441567,0,4.8,inactive
LOC441641,1,19.7,inactive
COL21A1 (collagen type XXI alpha 1 chain),0,-11.1,inactive
PTGES2-DT (PTGES2 divergent transcript),0,-0.8,inactive
